This assay addresses Rab11a-His12 (human) (UniProt P62491). Briefly: co-sedimentation.

Chains of the proteins cited; added tags and fusions are not shown. Lines headed by an entry give the natural chain unless they say otherwise; changes in a name come on top. A line that says so, or that is headed by a name, gives the form on record, which may keep a tag or linker. Residues count along the entry.
Rab11a-His12 (P62491, form named): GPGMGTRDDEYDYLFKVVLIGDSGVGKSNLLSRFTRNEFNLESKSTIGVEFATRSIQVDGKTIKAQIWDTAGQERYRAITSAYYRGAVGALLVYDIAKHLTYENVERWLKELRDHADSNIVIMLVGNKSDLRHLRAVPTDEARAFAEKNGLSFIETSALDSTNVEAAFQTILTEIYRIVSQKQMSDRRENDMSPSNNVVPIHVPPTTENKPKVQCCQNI
UniProt Q9Y4I1, residues 1534-1855: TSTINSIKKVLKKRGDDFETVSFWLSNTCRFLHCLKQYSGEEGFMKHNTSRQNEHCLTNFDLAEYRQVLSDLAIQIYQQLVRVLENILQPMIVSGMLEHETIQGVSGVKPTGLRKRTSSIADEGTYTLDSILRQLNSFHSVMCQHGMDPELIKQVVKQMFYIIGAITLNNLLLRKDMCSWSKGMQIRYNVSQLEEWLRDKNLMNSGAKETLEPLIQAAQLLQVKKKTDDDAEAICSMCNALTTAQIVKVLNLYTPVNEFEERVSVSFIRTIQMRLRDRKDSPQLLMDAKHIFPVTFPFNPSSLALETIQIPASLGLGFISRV
UniProt Q9ULV0, residues 1526-1848: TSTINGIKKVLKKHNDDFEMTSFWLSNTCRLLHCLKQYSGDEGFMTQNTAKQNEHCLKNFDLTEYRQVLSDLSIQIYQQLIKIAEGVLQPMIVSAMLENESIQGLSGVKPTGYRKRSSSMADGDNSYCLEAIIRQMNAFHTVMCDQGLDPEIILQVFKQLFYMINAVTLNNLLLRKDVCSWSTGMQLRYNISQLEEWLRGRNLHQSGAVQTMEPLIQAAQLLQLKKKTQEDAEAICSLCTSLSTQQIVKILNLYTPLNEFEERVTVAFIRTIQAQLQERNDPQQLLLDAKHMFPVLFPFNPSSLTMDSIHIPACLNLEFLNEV

These are yes or no findings as the source states them, for the method shown.

This is an account of results in doi:10.1101/129072.

With “Myo5A-GTD (globular tail domain of human myosin 5a, residues 1534-1855) (from UniProt Q9Y4I1 1534-1855) (domain or fragment)”, the binding entry was “no binding (tested: 2 μM)”. Turning to “Myo5B-GTD (globular tail domain of human myosin 5b, residues 1526-1848) (from UniProt Q9ULV0 1526-1848) (domain or fragment)”, the binding entry is on record as “no binding (tested: 2 μM)”.
